In the supplement of paper PMC11006884:
The entries are a selection whose mix differs from that of the whole data set.

By UniProt entry, the sequences of proteins in these tests, tags left out. Where a name states a change or a piece, a line headed by the entry shows the natural chain unless it says otherwise.
UniProt P51812, whole entry, looked up: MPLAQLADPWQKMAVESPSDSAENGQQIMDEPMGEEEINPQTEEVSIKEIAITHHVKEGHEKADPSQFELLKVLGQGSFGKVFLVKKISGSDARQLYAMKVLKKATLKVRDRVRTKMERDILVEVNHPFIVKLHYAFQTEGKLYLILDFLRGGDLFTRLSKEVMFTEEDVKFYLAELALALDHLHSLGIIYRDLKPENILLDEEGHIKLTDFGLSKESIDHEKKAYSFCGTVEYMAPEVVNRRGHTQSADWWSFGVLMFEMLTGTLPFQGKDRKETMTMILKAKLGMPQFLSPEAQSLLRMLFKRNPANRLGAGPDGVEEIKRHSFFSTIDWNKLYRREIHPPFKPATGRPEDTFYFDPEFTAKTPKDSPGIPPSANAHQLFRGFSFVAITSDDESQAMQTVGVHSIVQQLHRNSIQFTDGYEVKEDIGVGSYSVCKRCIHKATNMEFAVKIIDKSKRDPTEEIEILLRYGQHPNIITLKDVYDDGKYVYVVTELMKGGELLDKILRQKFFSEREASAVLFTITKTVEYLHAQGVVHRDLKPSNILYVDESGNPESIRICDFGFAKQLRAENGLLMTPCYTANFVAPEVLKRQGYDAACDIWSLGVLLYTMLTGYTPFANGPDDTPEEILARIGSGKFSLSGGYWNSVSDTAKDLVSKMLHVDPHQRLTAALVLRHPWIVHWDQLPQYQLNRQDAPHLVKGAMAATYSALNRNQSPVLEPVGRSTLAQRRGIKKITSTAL
UniProt P54132: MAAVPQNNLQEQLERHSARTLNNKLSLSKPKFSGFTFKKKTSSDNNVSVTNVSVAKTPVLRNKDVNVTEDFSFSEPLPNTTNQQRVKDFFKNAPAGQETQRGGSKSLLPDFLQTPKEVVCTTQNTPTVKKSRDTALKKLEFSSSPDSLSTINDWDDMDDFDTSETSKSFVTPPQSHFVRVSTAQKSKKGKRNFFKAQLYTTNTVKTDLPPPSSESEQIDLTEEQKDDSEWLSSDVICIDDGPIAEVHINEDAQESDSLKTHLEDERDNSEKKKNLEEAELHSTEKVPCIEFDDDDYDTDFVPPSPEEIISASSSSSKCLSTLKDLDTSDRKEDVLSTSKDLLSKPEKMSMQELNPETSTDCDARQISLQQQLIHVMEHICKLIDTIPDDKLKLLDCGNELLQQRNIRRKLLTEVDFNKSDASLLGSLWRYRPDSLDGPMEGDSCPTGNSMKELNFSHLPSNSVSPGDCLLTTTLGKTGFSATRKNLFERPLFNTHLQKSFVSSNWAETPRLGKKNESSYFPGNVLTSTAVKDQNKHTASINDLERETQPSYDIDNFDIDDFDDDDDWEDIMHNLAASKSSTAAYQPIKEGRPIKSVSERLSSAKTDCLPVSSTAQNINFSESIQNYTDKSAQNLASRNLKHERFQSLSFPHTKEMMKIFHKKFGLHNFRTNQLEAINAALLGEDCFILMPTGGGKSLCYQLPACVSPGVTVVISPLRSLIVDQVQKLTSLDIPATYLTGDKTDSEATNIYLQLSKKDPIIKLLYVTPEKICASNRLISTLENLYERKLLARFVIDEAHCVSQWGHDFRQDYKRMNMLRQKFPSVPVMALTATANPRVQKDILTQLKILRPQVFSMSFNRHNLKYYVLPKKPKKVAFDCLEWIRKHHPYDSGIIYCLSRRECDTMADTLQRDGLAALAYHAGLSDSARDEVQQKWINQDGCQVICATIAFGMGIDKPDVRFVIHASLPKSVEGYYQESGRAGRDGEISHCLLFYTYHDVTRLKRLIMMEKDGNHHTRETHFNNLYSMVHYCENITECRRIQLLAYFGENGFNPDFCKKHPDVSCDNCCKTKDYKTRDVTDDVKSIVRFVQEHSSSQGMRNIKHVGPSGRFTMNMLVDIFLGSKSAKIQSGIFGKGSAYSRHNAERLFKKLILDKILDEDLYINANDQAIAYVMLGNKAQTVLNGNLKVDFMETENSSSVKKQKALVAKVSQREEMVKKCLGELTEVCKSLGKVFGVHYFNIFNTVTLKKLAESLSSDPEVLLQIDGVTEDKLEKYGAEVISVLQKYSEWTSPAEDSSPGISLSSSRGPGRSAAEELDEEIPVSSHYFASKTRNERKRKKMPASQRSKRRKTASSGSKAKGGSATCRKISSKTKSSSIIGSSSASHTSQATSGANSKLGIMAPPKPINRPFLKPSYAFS
UniProt P55196: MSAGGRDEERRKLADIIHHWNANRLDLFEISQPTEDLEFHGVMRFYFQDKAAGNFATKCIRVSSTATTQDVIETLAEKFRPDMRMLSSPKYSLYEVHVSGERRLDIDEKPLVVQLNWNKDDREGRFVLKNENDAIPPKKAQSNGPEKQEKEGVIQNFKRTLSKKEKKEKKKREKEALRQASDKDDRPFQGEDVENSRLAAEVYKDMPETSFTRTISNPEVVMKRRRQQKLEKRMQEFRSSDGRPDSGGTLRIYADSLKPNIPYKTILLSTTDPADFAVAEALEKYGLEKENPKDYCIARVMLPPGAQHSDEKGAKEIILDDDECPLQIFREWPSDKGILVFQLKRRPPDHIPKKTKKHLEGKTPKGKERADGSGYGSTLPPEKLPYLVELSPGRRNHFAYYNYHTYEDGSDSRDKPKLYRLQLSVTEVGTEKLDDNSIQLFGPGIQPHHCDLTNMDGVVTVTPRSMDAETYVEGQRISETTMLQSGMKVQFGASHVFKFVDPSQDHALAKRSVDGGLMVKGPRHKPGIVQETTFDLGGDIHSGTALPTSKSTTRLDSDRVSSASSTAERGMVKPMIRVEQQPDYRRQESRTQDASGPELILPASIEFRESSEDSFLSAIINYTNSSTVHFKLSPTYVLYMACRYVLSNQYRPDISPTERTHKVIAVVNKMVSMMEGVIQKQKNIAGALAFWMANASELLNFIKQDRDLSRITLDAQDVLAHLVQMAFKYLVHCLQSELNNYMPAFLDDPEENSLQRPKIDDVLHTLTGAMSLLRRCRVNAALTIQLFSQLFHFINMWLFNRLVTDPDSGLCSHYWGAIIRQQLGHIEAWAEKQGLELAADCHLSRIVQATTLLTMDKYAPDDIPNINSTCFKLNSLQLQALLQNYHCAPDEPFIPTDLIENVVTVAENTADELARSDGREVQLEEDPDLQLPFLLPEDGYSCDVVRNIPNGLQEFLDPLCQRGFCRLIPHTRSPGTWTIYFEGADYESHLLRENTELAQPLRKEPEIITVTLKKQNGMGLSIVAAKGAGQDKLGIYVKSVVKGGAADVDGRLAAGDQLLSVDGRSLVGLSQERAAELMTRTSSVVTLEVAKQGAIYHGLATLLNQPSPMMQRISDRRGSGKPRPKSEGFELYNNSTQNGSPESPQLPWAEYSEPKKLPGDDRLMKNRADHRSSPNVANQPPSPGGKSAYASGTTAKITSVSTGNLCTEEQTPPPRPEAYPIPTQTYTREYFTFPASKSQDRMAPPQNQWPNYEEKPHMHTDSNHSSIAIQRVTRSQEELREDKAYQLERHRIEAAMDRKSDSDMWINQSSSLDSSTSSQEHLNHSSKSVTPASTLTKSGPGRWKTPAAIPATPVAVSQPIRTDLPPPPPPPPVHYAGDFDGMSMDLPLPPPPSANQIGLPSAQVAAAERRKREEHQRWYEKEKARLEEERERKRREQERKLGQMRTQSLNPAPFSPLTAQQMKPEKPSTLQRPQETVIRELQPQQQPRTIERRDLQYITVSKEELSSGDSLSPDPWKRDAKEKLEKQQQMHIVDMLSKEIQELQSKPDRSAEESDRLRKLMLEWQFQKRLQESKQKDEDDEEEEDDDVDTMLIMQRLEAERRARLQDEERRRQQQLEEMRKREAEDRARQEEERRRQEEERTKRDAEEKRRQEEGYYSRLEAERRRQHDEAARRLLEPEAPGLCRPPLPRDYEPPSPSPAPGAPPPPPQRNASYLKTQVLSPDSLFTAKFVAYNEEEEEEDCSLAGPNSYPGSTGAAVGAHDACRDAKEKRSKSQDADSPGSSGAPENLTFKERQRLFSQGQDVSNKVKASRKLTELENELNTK
UniProt P55265: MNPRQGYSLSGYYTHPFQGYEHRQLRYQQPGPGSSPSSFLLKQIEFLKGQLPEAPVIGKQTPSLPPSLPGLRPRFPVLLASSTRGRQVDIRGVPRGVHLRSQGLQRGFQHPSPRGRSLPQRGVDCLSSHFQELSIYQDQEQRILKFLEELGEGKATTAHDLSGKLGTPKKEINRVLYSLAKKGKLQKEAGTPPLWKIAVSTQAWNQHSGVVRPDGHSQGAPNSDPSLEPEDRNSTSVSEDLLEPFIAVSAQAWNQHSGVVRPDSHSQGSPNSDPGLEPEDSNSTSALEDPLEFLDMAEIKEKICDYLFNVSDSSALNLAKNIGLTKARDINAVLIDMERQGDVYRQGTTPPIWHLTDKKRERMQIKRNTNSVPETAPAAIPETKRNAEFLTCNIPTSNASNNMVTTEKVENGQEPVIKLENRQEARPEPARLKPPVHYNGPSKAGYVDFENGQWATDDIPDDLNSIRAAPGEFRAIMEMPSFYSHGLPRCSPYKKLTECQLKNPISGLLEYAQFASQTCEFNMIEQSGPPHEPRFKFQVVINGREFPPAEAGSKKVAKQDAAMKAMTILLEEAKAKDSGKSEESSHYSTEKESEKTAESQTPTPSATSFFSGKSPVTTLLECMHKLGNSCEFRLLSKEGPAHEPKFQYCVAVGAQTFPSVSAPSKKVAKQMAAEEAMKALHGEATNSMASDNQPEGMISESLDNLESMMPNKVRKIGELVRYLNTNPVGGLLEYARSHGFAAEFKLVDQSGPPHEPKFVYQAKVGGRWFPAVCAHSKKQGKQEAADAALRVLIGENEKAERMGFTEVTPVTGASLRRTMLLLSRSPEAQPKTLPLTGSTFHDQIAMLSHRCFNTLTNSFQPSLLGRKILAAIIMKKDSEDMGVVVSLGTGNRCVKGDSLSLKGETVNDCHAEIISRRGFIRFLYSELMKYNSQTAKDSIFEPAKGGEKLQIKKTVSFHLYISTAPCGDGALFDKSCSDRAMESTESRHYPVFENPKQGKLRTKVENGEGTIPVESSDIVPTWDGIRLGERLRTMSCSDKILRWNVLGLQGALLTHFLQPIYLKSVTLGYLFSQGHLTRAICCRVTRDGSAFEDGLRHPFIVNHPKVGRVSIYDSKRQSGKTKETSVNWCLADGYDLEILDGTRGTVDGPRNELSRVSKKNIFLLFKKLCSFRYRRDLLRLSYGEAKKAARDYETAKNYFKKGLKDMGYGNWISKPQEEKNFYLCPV
UniProt P60174, whole entry, looked up: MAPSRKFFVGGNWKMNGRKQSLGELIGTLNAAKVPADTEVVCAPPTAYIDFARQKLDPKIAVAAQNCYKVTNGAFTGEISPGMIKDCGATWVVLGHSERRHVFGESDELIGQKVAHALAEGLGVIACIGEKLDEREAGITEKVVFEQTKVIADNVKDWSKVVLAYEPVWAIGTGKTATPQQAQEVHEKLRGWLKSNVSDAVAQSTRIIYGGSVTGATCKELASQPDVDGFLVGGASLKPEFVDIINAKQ
UniProt P56277: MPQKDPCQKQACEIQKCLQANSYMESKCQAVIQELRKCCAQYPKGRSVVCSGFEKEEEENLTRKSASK
UniProt P56589: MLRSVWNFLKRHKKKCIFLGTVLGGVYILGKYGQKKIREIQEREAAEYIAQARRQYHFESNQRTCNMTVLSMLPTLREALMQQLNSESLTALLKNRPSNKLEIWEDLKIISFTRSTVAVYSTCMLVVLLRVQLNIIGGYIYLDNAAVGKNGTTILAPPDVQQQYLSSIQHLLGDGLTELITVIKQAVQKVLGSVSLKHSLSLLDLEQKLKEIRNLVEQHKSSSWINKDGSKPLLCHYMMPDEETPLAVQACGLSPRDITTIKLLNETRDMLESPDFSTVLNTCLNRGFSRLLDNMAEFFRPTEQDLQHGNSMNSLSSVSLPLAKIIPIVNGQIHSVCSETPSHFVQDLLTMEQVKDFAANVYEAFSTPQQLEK
UniProt P52888, whole entry, looked up: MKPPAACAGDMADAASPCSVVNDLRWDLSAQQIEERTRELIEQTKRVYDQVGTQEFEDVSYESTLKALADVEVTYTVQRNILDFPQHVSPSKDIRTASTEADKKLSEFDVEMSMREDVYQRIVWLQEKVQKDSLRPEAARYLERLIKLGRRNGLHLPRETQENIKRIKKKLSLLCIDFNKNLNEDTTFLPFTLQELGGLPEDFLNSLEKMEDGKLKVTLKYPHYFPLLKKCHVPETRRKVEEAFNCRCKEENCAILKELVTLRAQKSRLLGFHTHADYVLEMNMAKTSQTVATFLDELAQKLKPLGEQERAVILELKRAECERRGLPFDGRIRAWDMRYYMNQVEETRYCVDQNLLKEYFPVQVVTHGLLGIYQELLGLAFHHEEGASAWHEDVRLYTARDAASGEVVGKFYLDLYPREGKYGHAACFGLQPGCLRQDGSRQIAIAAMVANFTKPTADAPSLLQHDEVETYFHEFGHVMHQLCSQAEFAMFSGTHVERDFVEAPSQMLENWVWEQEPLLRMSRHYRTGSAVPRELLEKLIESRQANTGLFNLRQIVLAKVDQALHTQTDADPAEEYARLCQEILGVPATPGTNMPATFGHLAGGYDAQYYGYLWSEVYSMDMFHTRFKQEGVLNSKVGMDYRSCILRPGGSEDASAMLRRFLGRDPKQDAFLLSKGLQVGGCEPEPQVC

Compound: COC(=O)C#Cc1ccccc1 [methyl 3-phenylpropiolate]
Assay: log2 ratio of iodoacetamide-alkyne labeling of the cysteine site, DMSO over compound (competition); higher = stronger covalent engagement of the cysteine by the compound, active = 1 or more
Details: 500 µM; treatment time 1 h; system: HEK293T cell lysate
In short: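 After 1 h at ambient temperature with vehicle or electrophile (500 µM), HEK293T lysate (2 mg/mL) was labelled for 1 h with iodoacetamide alkyne and clicked to sCIP-TMT reagents. Pooled samples were trypsin-digested overnight at 37 °C, streptavidin-enriched, acid-eluted and analysed by Orbitrap Eclipse LC-MS/MS with FAIMS, then quantified in FragPipe over three replicates with duplicate channels. A cysteine's log2 competition ratio is its mean control-channel over mean compound-channel reporter intensity. Cysteines quantified in only one replicate were not included.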

| Target | log2 ratio of iodoacetamide-alkyne labeling |
| --- | --- |
| COPA C380 (UniProt P53621) | inactive: 0.304 |
| PLK1 C372 (UniProt P53350) | inactive: 0.506 |
| HNRNPH2 C122 (UniProt P55795) | inactive: -0.123 |
| UniProt P51812_C229 | inactive: 0.751 |
| UniProt P60763_C157 | inactive: -0.0139 |
| UniProt P60709_C257 | inactive: 0.0972 |
| BLM C607 (UniProt P54132) | inactive: 0.145 |
| UniProt P61077_C107 | inactive: 0.119 |
| UniProt P55196_C942 | active: 1.05 |
| EEFSEC C93 (UniProt P57772) | inactive: 0.229 |
| ADAR C499 (UniProt P55265) | inactive: 0.18 |
| UniProt P62241_C71 | inactive: 0.335 |
| ADAR C304 (UniProt P55265) | inactive: 0.277 |
| ACLY C20 (UniProt P53396) | inactive: 0.357 |
| HSD17B4 C373 (UniProt P51659) | inactive: 0.219 |
| NAP1L1 C258 (UniProt P55209) | inactive: 0.126 |
| UniProt P60891_C165 | inactive: -0.19 |
| TPI1 C79 (UniProt P60174) | inactive: 0.149 |
| PGGT1B C369 (UniProt P53609) | inactive: 0.515 |

| Target | log2 ratio of iodoacetamide-alkyne labeling |
| --- | --- |
| METAP1 C14 (UniProt P53582) | inactive: 0.325 |
| UniProt P55196_C1764 | inactive: 0.821 |
| NUP107 C78 (UniProt P57740) | inactive: 0.705 |
| CMC4 C12 (UniProt P56277) | active: 1.14 |
| UniProt P62241_C72 | inactive: -0.0565 |
| CASP7 C7 (UniProt P55210) | inactive: 0.0191 |
| ADAR C630 (UniProt P55265) | inactive: 0.457 |
| HNRNPH2 C34 (UniProt P55795) | inactive: 0.0589 |
| HNRNPM C694 (UniProt P52272) | inactive: 0.0717 |
| UniProt P55072_C522 | inactive: 0.173 |
| PPP5C C404 (UniProt P53041) | inactive: 0.194 |
| HDGF C12 (UniProt P51858) | inactive: 0.127 |
| PEX3 C283 (UniProt P56589) | inactive: 0.0605 |
| UniProt P60891_C265 | inactive: 0.0133 |
| ACTR3 C34 (UniProt P61158) | inactive: 0.0333 |
| THOP1 C689 (UniProt P52888) | inactive: 0.174 |
| CASP7 C116 (UniProt P55210) | inactive: 0.552 |
| COPA C453 (UniProt P53621) | inactive: 0.527 |

An excerpt of these results, as tab-separated lines.
Target	log2 ratio of iodoacetamide-alkyne labeling
ACLY C20 (UniProt P53396)	inactive: 0.357
HSD17B4 C373 (UniProt P51659)	inactive: 0.219
